Measurements: paper PMC9265771
Results are given in words; binding and its absence hold for the method and conditions named. In cells and extracts the contact can be indirect. Some entries that bind do so weakly or less than the wild type.

The chains behind the UniProt entries cited, without tags or fusion partners. Where a name states a change or a piece, a line headed by the entry shows the natural chain unless it says otherwise. A line that says so, or that is headed by a name, gives the form on record, which may keep a tag or linker. Residues count along the entry.
UniProt P97772, residues 21-1199: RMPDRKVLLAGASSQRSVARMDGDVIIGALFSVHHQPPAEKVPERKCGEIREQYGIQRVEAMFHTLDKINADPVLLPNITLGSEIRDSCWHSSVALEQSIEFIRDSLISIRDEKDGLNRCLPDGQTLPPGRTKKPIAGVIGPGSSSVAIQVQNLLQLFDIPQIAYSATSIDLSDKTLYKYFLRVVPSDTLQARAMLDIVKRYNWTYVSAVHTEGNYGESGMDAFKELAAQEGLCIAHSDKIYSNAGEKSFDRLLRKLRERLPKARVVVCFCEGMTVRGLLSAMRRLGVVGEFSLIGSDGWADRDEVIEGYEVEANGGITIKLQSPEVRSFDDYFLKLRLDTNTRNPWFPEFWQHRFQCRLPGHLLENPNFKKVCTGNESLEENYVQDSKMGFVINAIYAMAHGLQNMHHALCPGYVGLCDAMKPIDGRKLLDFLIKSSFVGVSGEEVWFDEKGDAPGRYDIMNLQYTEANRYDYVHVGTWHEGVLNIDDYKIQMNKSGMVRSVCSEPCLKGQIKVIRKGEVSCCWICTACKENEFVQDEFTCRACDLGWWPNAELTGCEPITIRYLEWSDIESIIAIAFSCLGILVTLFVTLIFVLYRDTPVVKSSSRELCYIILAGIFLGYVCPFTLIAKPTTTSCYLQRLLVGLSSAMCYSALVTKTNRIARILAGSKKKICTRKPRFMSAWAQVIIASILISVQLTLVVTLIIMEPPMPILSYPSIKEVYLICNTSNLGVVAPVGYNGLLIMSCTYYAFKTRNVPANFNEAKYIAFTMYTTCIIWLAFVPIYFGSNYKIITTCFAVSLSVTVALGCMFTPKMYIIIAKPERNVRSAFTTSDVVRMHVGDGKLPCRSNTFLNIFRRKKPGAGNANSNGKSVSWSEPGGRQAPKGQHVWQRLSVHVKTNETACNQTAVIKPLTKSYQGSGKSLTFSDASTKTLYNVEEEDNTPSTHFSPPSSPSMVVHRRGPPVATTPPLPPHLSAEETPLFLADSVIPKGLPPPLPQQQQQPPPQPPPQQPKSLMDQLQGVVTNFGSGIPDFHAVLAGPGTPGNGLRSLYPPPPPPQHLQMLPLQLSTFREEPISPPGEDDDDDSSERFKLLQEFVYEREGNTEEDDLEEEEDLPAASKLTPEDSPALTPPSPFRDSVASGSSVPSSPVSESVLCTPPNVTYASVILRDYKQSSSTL
metabotropic glutamate receptor 5a (mGluR5a), rat, expressed from the L7-mGluR5a transgene in mouse Purkinje cells (P31424-2, form named): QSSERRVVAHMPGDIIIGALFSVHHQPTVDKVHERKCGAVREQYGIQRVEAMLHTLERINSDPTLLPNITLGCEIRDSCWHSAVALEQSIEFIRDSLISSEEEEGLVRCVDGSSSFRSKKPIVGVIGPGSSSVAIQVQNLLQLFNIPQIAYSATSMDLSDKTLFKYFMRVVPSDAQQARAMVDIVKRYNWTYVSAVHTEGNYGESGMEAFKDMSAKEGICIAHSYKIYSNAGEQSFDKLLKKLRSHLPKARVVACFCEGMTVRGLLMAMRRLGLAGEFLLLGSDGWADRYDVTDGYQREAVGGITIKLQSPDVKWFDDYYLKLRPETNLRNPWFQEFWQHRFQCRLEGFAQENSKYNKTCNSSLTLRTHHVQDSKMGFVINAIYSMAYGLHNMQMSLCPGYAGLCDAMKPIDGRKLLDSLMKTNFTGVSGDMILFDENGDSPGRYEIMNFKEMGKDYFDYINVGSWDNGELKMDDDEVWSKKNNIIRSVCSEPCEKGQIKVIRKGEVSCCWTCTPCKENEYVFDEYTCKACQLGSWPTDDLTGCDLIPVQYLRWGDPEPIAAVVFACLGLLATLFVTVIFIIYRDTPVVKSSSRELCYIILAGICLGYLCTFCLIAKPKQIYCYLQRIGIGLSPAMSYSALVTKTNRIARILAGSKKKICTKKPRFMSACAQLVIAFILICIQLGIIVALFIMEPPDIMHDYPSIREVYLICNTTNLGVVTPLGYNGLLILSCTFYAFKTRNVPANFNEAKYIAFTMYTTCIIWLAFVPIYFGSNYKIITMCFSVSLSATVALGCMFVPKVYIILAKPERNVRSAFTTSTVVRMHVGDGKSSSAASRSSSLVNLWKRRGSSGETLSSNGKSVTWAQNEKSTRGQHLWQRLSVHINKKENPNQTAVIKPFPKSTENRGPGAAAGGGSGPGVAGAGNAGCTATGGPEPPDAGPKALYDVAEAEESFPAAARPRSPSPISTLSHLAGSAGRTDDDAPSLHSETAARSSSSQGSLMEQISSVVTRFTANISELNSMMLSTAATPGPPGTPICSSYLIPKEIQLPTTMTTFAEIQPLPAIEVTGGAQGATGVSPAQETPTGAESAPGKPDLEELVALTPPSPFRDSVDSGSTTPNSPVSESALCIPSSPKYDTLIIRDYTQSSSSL

What was measured:
[1] = target: metabotropic glutamate receptor 1 (mGluR1), endogenous mouse (mouse (endogenous in cerebellum)) (UniProt P97772); assay: co-IP; synaptosomal fraction of cerebella from wild-type, L7-mGluR5 Tg or mGluR5-rescue mice, solubilised in 50 mM Tris-HCl pH 7.4, 150 mM NaCl, 1% NP-40; incubated overnight with antibody to mGluR1 or mGluR5 (control mouse or rabbit IgG), protein G Sepharose; immunoblot for mGluR5, mGluR1 and Pan-Homer
[2] = target: metabotropic glutamate receptor 5a (mGluR5a), rat, expressed from the L7-mGluR5a transgene in mouse Purkinje cells (rat) (UniProt P31424); assay: as above

| Substance | binding [1] | binding [2] |
| --- | --- | --- |
| metabotropic glutamate receptor 5a (mGluR5a), rat, expressed from the L7-mGluR5a transgene in mouse Purkinje cells (from UniProt P31424-2 21-1171) | binds |  |
| metabotropic glutamate receptor 1 (mGluR1), endogenous mouse (from UniProt P97772 21-1199) |  | binds |
